Here are results for 37 targets from the supplement of paper PMC7666118.

By UniProt entry, the sequences of proteins in these tests, tags left out. Where a name states a change or a piece, a line headed by the entry shows the natural chain unless it says otherwise.
UniProt P27816: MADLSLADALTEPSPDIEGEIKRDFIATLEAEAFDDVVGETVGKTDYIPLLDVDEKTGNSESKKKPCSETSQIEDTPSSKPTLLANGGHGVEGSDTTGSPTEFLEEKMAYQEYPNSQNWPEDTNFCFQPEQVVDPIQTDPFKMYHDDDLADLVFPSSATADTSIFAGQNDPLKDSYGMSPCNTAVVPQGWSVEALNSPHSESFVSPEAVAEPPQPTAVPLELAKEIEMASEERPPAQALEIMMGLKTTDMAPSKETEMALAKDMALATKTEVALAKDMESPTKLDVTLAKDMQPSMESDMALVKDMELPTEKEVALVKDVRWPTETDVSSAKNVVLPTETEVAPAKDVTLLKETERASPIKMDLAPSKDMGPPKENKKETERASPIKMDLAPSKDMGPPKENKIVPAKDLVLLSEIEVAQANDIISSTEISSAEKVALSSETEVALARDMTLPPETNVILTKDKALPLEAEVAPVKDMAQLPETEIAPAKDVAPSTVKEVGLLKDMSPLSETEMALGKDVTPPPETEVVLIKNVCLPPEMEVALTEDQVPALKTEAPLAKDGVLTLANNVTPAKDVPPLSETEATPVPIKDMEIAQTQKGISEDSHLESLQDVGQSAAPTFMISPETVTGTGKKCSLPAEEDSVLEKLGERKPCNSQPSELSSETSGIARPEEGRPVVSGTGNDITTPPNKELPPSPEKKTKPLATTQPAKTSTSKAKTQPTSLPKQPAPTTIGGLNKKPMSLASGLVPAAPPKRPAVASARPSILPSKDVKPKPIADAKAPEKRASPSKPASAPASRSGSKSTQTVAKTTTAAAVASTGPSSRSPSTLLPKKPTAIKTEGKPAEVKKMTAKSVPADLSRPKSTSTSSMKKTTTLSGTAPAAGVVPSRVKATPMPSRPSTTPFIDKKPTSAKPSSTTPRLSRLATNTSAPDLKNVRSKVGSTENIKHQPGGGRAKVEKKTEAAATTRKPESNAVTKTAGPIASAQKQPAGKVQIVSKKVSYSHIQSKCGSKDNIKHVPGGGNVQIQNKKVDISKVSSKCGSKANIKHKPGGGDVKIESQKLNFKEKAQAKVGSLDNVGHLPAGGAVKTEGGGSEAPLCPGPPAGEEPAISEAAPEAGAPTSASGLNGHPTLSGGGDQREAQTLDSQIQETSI
UniProt Q14165: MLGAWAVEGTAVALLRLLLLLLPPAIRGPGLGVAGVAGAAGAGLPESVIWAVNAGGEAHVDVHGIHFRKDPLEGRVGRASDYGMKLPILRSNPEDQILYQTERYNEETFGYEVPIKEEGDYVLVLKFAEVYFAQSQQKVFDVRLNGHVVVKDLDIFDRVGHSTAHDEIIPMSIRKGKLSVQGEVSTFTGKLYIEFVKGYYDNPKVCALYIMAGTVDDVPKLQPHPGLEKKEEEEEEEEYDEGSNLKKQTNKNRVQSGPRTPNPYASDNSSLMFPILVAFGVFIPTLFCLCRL
UniProt Q9HCE1: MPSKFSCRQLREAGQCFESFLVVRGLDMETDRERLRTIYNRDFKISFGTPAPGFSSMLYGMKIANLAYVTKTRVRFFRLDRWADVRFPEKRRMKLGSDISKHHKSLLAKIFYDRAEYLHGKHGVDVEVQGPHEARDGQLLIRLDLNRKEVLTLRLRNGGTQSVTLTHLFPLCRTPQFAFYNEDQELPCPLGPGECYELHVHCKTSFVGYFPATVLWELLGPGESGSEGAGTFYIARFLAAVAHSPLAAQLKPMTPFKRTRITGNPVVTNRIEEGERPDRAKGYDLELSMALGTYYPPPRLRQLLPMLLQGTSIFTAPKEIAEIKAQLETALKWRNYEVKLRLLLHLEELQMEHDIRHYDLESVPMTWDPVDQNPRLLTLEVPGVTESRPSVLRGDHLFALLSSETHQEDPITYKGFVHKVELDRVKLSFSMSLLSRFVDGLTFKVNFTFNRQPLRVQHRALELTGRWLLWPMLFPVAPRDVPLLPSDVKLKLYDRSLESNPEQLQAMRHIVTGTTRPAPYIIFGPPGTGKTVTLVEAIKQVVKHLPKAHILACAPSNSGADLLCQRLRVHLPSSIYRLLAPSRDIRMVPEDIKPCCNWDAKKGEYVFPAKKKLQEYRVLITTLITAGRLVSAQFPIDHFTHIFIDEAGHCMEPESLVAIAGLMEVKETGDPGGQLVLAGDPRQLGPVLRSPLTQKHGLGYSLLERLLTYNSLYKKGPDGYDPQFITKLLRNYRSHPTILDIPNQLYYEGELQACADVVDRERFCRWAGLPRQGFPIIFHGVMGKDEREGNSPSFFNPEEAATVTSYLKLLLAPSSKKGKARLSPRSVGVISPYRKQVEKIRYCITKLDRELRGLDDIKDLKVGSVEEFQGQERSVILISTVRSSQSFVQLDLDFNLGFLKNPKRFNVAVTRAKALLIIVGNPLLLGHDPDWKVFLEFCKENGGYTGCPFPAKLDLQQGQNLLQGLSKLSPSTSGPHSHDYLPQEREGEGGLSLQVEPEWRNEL
UniProt P23368: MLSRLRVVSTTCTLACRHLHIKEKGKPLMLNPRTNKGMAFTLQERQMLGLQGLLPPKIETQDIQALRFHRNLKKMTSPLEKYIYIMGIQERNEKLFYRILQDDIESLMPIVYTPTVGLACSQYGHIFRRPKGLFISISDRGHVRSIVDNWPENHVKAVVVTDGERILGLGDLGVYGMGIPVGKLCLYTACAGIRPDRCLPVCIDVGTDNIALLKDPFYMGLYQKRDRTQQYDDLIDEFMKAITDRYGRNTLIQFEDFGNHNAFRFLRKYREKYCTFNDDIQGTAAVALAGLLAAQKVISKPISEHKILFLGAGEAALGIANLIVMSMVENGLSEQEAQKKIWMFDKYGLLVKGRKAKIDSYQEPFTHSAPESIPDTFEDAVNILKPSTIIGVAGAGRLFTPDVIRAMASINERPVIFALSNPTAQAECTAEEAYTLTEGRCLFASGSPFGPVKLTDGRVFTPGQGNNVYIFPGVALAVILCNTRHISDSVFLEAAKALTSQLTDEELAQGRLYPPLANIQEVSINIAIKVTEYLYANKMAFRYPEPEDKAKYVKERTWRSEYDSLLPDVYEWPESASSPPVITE
UniProt Q8N108: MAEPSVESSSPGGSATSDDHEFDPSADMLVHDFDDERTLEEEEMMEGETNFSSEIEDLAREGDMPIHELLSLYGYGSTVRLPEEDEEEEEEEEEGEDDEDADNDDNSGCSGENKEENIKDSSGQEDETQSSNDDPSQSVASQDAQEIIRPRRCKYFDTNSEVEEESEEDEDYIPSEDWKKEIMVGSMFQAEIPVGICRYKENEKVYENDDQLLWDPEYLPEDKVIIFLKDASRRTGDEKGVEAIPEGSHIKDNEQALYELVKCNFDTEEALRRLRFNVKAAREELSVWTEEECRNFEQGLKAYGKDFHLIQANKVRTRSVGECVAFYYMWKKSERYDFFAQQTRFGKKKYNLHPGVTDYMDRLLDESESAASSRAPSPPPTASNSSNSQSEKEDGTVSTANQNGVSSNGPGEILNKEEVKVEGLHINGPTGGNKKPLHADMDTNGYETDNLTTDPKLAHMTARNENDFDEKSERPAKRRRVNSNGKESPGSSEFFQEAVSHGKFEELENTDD
UniProt Q96PE7: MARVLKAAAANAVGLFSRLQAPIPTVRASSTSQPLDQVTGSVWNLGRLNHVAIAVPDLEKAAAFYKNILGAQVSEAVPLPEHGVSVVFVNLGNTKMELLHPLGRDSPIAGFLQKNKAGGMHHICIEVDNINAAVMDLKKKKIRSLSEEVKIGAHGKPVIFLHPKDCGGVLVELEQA
UniProt Q99683: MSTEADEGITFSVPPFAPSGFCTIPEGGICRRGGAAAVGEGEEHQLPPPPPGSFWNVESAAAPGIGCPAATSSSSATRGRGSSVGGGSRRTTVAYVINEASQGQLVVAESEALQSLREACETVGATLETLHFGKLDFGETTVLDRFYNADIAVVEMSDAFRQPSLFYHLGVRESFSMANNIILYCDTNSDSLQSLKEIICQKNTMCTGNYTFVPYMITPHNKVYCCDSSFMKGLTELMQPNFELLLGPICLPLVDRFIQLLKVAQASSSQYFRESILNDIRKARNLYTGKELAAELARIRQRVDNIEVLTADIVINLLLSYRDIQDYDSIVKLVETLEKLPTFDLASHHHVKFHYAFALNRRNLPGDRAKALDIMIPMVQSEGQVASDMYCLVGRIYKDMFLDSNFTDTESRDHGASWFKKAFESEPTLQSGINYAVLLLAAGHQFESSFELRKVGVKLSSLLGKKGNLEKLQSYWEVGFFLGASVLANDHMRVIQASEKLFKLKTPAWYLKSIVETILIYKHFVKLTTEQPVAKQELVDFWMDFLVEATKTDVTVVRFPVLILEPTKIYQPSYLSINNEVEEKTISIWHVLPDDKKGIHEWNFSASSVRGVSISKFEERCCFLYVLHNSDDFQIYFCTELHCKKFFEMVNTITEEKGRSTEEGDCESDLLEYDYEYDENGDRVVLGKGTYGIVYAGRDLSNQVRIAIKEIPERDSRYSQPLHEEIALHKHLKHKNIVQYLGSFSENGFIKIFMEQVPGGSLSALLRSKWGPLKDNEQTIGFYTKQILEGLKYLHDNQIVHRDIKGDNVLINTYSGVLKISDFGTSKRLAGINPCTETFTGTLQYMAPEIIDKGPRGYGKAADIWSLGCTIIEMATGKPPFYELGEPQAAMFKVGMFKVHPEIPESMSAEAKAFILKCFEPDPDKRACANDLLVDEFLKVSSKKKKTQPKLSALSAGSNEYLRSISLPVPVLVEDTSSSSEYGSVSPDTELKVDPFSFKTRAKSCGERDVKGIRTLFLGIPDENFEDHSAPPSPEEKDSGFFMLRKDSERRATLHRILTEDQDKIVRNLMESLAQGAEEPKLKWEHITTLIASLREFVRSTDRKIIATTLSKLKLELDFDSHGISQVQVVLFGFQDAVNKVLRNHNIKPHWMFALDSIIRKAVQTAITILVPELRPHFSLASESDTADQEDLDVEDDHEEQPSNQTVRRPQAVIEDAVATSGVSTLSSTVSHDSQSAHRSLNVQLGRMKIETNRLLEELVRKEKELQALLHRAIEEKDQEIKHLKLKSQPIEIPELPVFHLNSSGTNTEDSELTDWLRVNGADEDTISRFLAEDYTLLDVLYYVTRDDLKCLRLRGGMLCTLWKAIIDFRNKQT
UniProt Q8NI22: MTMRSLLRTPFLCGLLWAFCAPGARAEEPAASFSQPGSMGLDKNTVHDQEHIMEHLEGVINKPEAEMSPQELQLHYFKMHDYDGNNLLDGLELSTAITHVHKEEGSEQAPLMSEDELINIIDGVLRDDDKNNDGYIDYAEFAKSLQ
UniProt Q9BUB5: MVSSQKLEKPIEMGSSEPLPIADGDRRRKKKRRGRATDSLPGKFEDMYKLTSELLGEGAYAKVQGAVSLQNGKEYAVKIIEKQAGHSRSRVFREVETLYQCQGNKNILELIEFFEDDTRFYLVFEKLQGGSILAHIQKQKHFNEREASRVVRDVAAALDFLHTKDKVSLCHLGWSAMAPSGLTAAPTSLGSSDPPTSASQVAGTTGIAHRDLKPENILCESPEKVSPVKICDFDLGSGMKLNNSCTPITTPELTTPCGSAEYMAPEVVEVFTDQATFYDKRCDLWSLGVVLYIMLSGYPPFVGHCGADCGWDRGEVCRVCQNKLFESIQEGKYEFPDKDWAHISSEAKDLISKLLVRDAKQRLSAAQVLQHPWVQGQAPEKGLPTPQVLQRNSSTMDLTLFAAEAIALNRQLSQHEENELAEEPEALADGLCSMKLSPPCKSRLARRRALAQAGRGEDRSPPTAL
UniProt Q16539, whole entry: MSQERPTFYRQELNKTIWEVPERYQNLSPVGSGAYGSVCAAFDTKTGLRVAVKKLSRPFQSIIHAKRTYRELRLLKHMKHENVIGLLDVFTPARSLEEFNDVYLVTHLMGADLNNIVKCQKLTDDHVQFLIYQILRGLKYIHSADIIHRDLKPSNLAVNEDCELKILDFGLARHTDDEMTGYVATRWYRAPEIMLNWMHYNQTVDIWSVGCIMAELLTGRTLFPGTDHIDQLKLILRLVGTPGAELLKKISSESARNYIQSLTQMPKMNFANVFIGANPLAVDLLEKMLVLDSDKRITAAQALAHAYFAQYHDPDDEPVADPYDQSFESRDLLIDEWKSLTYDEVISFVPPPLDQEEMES
UniProt P27361, whole entry: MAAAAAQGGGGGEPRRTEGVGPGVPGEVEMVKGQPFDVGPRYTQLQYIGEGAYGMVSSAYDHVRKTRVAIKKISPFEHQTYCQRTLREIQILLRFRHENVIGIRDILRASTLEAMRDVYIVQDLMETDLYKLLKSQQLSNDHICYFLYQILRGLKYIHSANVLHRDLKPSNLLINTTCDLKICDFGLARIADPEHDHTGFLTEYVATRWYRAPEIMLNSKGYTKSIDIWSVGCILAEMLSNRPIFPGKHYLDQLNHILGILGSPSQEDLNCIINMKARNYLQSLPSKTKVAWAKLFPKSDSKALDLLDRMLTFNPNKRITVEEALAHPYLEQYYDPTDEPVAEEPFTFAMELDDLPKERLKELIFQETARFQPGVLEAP

The other results are listed elsewhere or left out.

Compound in the test: COc1ccc(Cn2ccc3ccc(C(=O)NO)cc32)cc1
Kind of test: dose-dependent thermal stabilisation call (2D-TPP, DLPTP, 10% FDR) (binary (1 = stabilised)); higher = stabilised by the compound. Conditions: system: HL-60 intact cells; concentration range 0.04-10 µM.
On to MAP4 (UniProt P27816), for which the “dose-dependent thermal stabilisation call” value was inactive: 0. The value for MFAP1 (UniProt P55081) was inactive: 0.

As for MED27 (UniProt Q6P2C8), the “dose-dependent thermal stabilisation call” value is inactive: 0. The same measure for MGC3207: inactive: 0; for MRPL34 (UniProt Q9BQ48): inactive: 0. The same measure for MAP3K2 (UniProt Q9Y2U5): inactive: 0; for MOCS2: inactive: 0.

As to MFSD5 (UniProt Q6N075), the “dose-dependent thermal stabilisation call” value is inactive: 0. Take METT5D1 (UniProt A6NJ78): the “dose-dependent thermal stabilisation call” value is inactive: 0. The same measure for MLEC (UniProt Q14165): inactive: 0; for MOV10 (UniProt Q9HCE1): inactive: 0; for ME2 (UniProt P23368): active: 1. The value for MIER1 (UniProt Q8N108) was inactive: 0; that for MRPL15 (UniProt Q9P015) was inactive: 0. The same measure for MOSPD1 (UniProt Q9UJG1): inactive: 0; for MRPL23 (UniProt Q16540): inactive: 0; for MCEE (UniProt Q96PE7): inactive: 0. Consider MRPL55 (UniProt Q7Z7F7), for which the “dose-dependent thermal stabilisation call” value was inactive: 0. The value for MAZ (UniProt P56270) was inactive: 0; that for MRPL49 (UniProt Q13405) was inactive: 0; that for MAP3K5 (UniProt Q99683) was inactive: 0. In the case of MCFD2 (UniProt Q8NI22), the “dose-dependent thermal stabilisation call” value was inactive: 0. For the target MAP2K2 (UniProt P36507), the “dose-dependent thermal stabilisation call” value is inactive: 0.

For MKI67 (UniProt P46013), the “dose-dependent thermal stabilisation call” value is inactive: 0. The same measure for MKNK1 (UniProt Q9BUB5): inactive: 0.

As for MLH1 (UniProt P40692), the “dose-dependent thermal stabilisation call” value is inactive: 0. As for MRE11A (UniProt P49959), the “dose-dependent thermal stabilisation call” value was inactive: 0.

Regarding MDP-1, the “dose-dependent thermal stabilisation call” value was inactive: 0. The value for MAPK14 (UniProt Q16539) was active: 1; that for MED26 (UniProt O95402) was inactive: 0. The same measure for MAPK3 (UniProt P27361): inactive: 0.

Turning to MLLT1 (UniProt Q03111), the “dose-dependent thermal stabilisation call” value was inactive: 0. The value for MCOLN1 (UniProt Q9GZU1) was inactive: 0. In the case of MRPL39 (UniProt Q9NYK5), the “dose-dependent thermal stabilisation call” value is inactive: 0. For MGC16169, the “dose-dependent thermal stabilisation call” value was inactive: 0. With MOSPD2 (UniProt Q8NHP6), the “dose-dependent thermal stabilisation call” value was inactive: 0. For the target MRPS25 (UniProt P82663), the “dose-dependent thermal stabilisation call” value is inactive: 0.
